# Values quoted from earlier work as cited in patent US11779563B2, “Oral cannabinoid pharmaceutical compositions and methods of treating sleep disorders” (Curio IP, LLC, priority 2021, dated 2023).
# Settings: smoking route (Huestis 2007)
structure (smiles),measurement,value
"CCCCCc1cc(O)c2c(c1)OC(C)(C)[C@@H]1CCC(C)=C[C@@H]21 [THC, (−)-(6aR,10aR)-6,6,9-trimethyl-3-pentyl-6a,7,8,10a-tetrahydro-6H-benzo[c]chromen-1-ol]",Bioavailability,2-56%
